Measurements taken from the supplement of paper PMC8728848.
The other results are listed elsewhere or left out.

Key:
Assay in all cases: glycan array binding signal (z-score within array); higher = stronger binding
Settings in all cases: glycan notation: IUPAC condensed, linker removed
[1] = biological target: Gal(b1-4)GlcNAc(b1-3)Gal(b1-4)GlcNAc(b1-2)[Gal(b1-4)GlcNAc(b1-3)Gal(b1-4)GlcNAc(b1-6)]Man(a1-6)[Gal(b1-4)GlcNAc(b1-3)Gal(b1-4)GlcNAc(b1-2)Man(a1-3)]Man(b1-4)GlcNAc(b1-4)GlcNAc
Outline: (§1)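 Glycan array data came from 3228 arrays in the Consortium for Functional Glycomics database, and only arrays with an available protein sequence were kept. Glycan names were put into IUPAC-condensed notation, and columns mapping to the same glycan were averaged. The binding signal is a within-array Z-score, averaged across arrays of one protein sequence run at different concentrations or buffers and across linkers. A negative Z-score can be read as non-binding.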

[2] = biological target: Gal(b1-4)GlcNAc(b1-3)Gal(b1-4)GlcNAc(b1-2)[Gal(b1-4)GlcNAc(b1-3)Gal(b1-4)GlcNAc(b1-6)]Man(a1-6)[Gal(b1-4)GlcNAc(b1-3)Gal(b1-4)GlcNAc(b1-2)Man(a1-3)]Man(b1-4)GlcNAc(b1-4)[Fuc(a1-6)]GlcNAc
Outline: as §1

[3] = biological target: Gal(b1-4)GlcNAc(b1-3)Gal(b1-4)GlcNAc(b1-3)Gal(b1-4)GlcNAc
Outline: as §1

[4] = biological target: Gal(b1-4)GlcNAc(b1-3)Gal(b1-4)GlcNAc(b1-3)Gal(b1-4)GlcNAc(b1-2)Man(a1-3)[Gal(b1-4)GlcNAc(b1-3)Gal(b1-4)GlcNAc(b1-3)Gal(b1-4)GlcNAc(b1-2)Man(a1-6)]Man(b1-4)GlcNAc(b1-4)GlcNAc
Outline: as §1

[5] = biological target: Gal(b1-4)GlcNAc(b1-3)Gal(b1-4)GlcNAc(b1-3)Gal(b1-4)GlcNAc(b1-2)Man(a1-3)[Gal(b1-4)GlcNAc(b1-3)Gal(b1-4)GlcNAc(b1-3)Gal(b1-4)GlcNAc(b1-2)Man(a1-6)]Man(b1-4)GlcNAc(b1-4)[Fuc(a1-6)]GlcNAc
Outline: as §1

[6] = biological target: Gal(b1-4)GlcNAc(b1-3)Gal(b1-4)GlcNAc(b1-3)Gal(b1-4)GlcNAc(b1-2)[Gal(b1-4)GlcNAc(b1-3)Gal(b1-4)GlcNAc(b1-3)Gal(b1-4)GlcNAc(b1-6)]Man(a1-6)[Gal(b1-4)GlcNAc(b1-3)Gal(b1-4)GlcNAc(b1-3)Gal(b1-4)GlcNAc(b1-2)Man(a1-3)]Man(b1-4)GlcNAc(b1-4)[Fuc(a1-6)]GlcNAc
Outline: as §1

[7] = biological target: Gal(b1-4)GlcNAc(b1-3)Gal(b1-4)GlcNAc(b1-3)Gal(b1-4)GlcNAc(b1-3)Gal(b1-4)GlcNAc(b1-2)Man(a1-3)[Gal(b1-4)GlcNAc(b1-3)Gal(b1-4)GlcNAc(b1-3)Gal(b1-4)GlcNAc(b1-3)Gal(b1-4)GlcNAc(b1-2)Man(a1-6)]Man(b1-4)GlcNAc(b1-4)GlcNAc
Outline: as §1

[8] = biological target: Gal(b1-4)GlcNAc(b1-3)Gal(b1-4)GlcNAc(b1-3)Gal(b1-4)GlcNAc(b1-3)Gal(b1-4)GlcNAc(b1-2)Man(a1-3)[Gal(b1-4)GlcNAc(b1-3)Gal(b1-4)GlcNAc(b1-3)Gal(b1-4)GlcNAc(b1-3)Gal(b1-4)GlcNAc(b1-2)Man(a1-6)]Man(b1-4)GlcNAc(b1-4)[Fuc(a1-6)]GlcNAc
Outline: as §1

[9] = biological target: Gal(b1-4)GlcNAc(b1-3)Gal(b1-4)GlcNAc(b1-3)Gal(b1-4)GlcNAc(b1-3)Gal(b1-4)GlcNAc(b1-2)[Gal(b1-4)GlcNAc(b1-3)Gal(b1-4)GlcNAc(b1-3)Gal(b1-4)GlcNAc(b1-3)Gal(b1-4)GlcNAc(b1-6)]Man(a1-6)[Gal(b1-4)GlcNAc(b1-3)Gal(b1-4)GlcNAc(b1-3)Gal(b1-4)GlcNAc(b1-3)Gal(b1-4)GlcNAc(b1-2)Man(a1-3)]Man(b1-4)GlcNAc(b1-4)[Fuc(a1-6)]GlcNAc
Outline: as §1

[10] = biological target: Gal(b1-4)GlcNAc(b1-3)Gal(b1-4)GlcNAc(b1-3)Gal(b1-4)GlcNAc(b1-3)Gal(b1-4)GlcNAc(b1-3)Gal(b1-4)GlcNAc(b1-2)Man(a1-3)[Gal(b1-4)GlcNAc(b1-3)Gal(b1-4)GlcNAc(b1-3)Gal(b1-4)GlcNAc(b1-3)Gal(b1-4)GlcNAc(b1-3)Gal(b1-4)GlcNAc(b1-2)Man(a1-6)]Man(b1-4)GlcNAc(b1-4)GlcNAc
Outline: as §1

[11] = biological target: Gal(b1-4)GlcNAc(b1-3)Gal(b1-4)GlcNAc(b1-3)Gal(b1-4)GlcNAc(b1-3)Gal(b1-4)GlcNAc(b1-3)Gal(b1-4)GlcNAc(b1-2)Man(a1-3)[Gal(b1-4)GlcNAc(b1-3)Gal(b1-4)GlcNAc(b1-3)Gal(b1-4)GlcNAc(b1-3)Gal(b1-4)GlcNAc(b1-3)Gal(b1-4)GlcNAc(b1-2)Man(a1-6)]Man(b1-4)GlcNAc(b1-4)[Fuc(a1-6)]GlcNAc
Outline: as §1

[12] = biological target: Gal(b1-4)GlcNAc(b1-3)Gal(b1-4)GlcNAc(b1-3)Gal(b1-4)GlcNAc(b1-3)Gal(b1-4)GlcNAc(b1-3)Gal(b1-4)GlcNAc(b1-2)[Gal(b1-4)GlcNAc(b1-3)Gal(b1-4)GlcNAc(b1-3)Gal(b1-4)GlcNAc(b1-3)Gal(b1-4)GlcNAc(b1-3)Gal(b1-4)GlcNAc(b1-6)]Man(a1-6)[Gal(b1-4)GlcNAc(b1-3)Gal(b1-4)GlcNAc(b1-3)Gal(b1-4)GlcNAc(b1-3)Gal(b1-4)GlcNAc(b1-3)Gal(b1-4)GlcNAc(b1-2)Man(a1-3)]Man(b1-4)GlcNAc(b1-4)[Fuc(a1-6)]GlcNAc
Outline: as §1

[13] = biological target: Gal(b1-4)GlcNAc(b1-3)Gal(b1-4)GlcNAc(b1-3)Gal(b1-4)GlcNAc(b1-3)Gal(b1-4)GlcNAc(b1-3)Gal(b1-4)GlcNAc(b1-3)Gal(b1-4)GlcNAc(b1-2)Man(a1-3)[Gal(b1-4)GlcNAc(b1-3)Gal(b1-4)GlcNAc(b1-3)Gal(b1-4)GlcNAc(b1-3)Gal(b1-4)GlcNAc(b1-3)Gal(b1-4)GlcNAc(b1-3)Gal(b1-4)GlcNAc(b1-2)Man(a1-6)]Man(b1-4)GlcNAc(b1-4)GlcNAc
Outline: as §1

[14] = biological target: Gal(b1-4)GlcNAc(b1-3)Gal(b1-4)GlcNAc(b1-3)GalNAc
Outline: as §1

[15] = biological target: Gal(b1-4)GlcNAc(b1-3)Gal(b1-4)GlcNAc(b1-3)[Gal(b1-4)GlcNAc(b1-3)Gal(b1-4)GlcNAc(b1-6)]GalNAc
Outline: as §1

[16] = biological target: Gal(b1-4)GlcNAc(b1-3)Gal(b1-4)GlcNAc(b1-6)[Gal(b1-3)]GalNAc
Outline: as §1

[17] = biological target: Gal(b1-4)GlcNAc(b1-3)Gal(b1-4)[Fuc(a1-3)]GlcNAc(b1-3)Gal(b1-4)[Fuc(a1-3)]GlcNAc
Outline: as §1

[18] = biological target: Gal(b1-4)GlcNAc(b1-3)GalNAc
Outline: as §1

[19] = biological target: Gal(b1-4)GlcNAc(b1-3)[Fuc(a1-3)GlcNAc(b1-6)]Gal(b1-4)Glc
Outline: as §1

[20] = biological target: Gal(b1-4)GlcNAc(b1-3)[Gal(b1-4)GlcNAc(b1-6)]Gal(b1-4)GlcNAc
Outline: as §1

[21] = biological target: Gal(b1-4)GlcNAc(b1-3)[GlcNAc(b1-6)]Gal(b1-4)GlcNAc
Outline: as §1

[22] = biological target: Gal(b1-4)GlcNAc(b1-6)Gal(b1-4)GlcNAc
Outline: as §1

[23] = biological target: Gal(b1-4)GlcNAc(b1-6)GalNAc
Outline: as §1

[24] = biological target: Gal(b1-4)GlcNAc(b1-6)[Gal(b1-3)]GalNAc
Outline: as §1

[25] = biological target: Gal(b1-4)GlcNAc(b1-6)[Gal(b1-4)GlcNAc(b1-3)]GalNAc
Outline: as §1

Gal(b1-4)GlcNAc6P = biological target: Gal(b1-4)GlcNAc6P
Outline: as §1

Gal(b1-6)Gal = biological target: Gal(b1-6)Gal
Outline: as §1

Gal3S(b1-3)GalNAc = biological target: Gal3S(b1-3)GalNAc
Outline: as §1

Gal3S(b1-3)GlcNAc = biological target: Gal3S(b1-3)GlcNAc
Outline: as §1

[26] = biological target: Gal3S(b1-3)[Fuc(a1-4)]GlcNAc
Outline: as §1

B1: PX14343F-bfa-562-20-562 (Bacteroides fragilis) (protein)
chain: CDDFLDSFPQDTVTNENFWKSKEDADKVLVDIYASLLPKDAIFFDEAMSDNAYLVWDWWGGAQQVANGSYTTSGEIPTNRWNGSYEVIRKCWFLLEGIEKIEDISEQDKNKIIGETYFMLAYNYYVLTSYFGDVPLVTKTLAIPESKQLVRTPKAEVVDYAINKLKEAAVMLEGLSQEKGRVTADACRFLIARMYLYNGDYSNVLETVKLLEGKYQLYREGDTPYEDLFSGVAENSCEVILSVVCDKRVGEIYTSHGGNGIMLLKGITGEDPYRGVTPSGSLVDAYPMADGRLIHEAGSSYDPKKPYEGRDPRFYQSIVYPTGQIKYLDVETGTVKERLYDPEDPTTVPEHQYNYSQPSATGYMWNKYIDYSVYAMNSVWDCTNDIIVFRYADVLLMKAEALLQTKGESAKEEVCNLIDQLRDRCSCGRVHRENYNSKDELMELLKNERRIELANEGLRYMDLIRWKDAEKNTIVTGVGLTGQMYGAYMRKDGVGKDDKTVDVDNTPRRYIETRYFNASKGYLFPIPQKERDLNPNLTQNPNW
In the case of B1, the “glycan array binding signal (z-score)” value [1] is reported as 1.2, the “glycan array binding signal (z-score)” value [2] is reported as 1.44 and the “glycan array binding signal (z-score)” value [3] is reported as -0.468. The “glycan array binding signal (z-score)” value [4] was 0.911, the “glycan array binding signal (z-score)” value [5] was -0.378 and the “glycan array binding signal (z-score)” value [6] was 0.566. The “glycan array binding signal (z-score)” value [7] was 0.79, the “glycan array binding signal (z-score)” value [8] was -0.007 and the “glycan array binding signal (z-score)” value [9] was 1.04. For the same binder, the “glycan array binding signal (z-score)” value [10] was 0.735, the “glycan array binding signal (z-score)” value [11] was 0.733 and the “glycan array binding signal (z-score)” value [12] was 0.714. For the same binder, the “glycan array binding signal (z-score)” value [13] was 0.274, the “glycan array binding signal (z-score)” value [14] was -0.25 and the “glycan array binding signal (z-score)” value [15] was 0.057. For the same binder, the “glycan array binding signal (z-score)” value [16] was -0.379, the “glycan array binding signal (z-score)” value [17] was -0.059 and the “glycan array binding signal (z-score)” value [18] was -0.276. For the same binder, the “glycan array binding signal (z-score)” value [19] was 1.78, the “glycan array binding signal (z-score)” value [20] was -0.178 and the “glycan array binding signal (z-score)” value [21] was -0.487. For the same binder, the “glycan array binding signal (z-score)” value [22] was -0.487, the “glycan array binding signal (z-score)” value [23] was 0.45 and the “glycan array binding signal (z-score)” value [24] was -0.082. For the same binder, the “glycan array binding signal (z-score)” value [25] was -0.149, the “glycan array binding signal (z-score)” value (Gal(b1-4)GlcNAc6P) was 0.108 and the “glycan array binding signal (z-score)” value (Gal(b1-6)Gal) was -0.114. The “glycan array binding signal (z-score)” value (Gal3S(b1-3)GalNAc) was -0.168, the “glycan array binding signal (z-score)” value (Gal3S(b1-3)GlcNAc) was -0.276 and the “glycan array binding signal (z-score)” value [26] was -0.53.
